According to the supplement of paper PMC12889115:
The list shows a part of the results. These are raw signals, not scaled to a control.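 Primary screen: polymyxin B was added at a level permeabilizing Salmonella outer membranes while sparing inner membranes. DMSO wells, both with and without polymyxin B, established maximum growth. Plate-to-plate variation meant each plate was ranked on its own, and the lowest-OD600 compounds were selected as hits.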

Test system: Salmonella enterica serovar Typhimurium SL1344
Assay: bacterial growth OD600 after 18 h with compound and polymyxin B; higher = more bacterial growth (less inhibition)
Conditions: 50 µM, Mueller-Hinton broth

Structure (SMILES) | bacterial growth OD600 (polymyxin B 1 µg/mL) | bacterial growth OD600 (polymyxin B 0.75 µg/mL)
COc1ccc(C(=O)NC2CC2)cc1OC1CCN(C/C=C/c2ccccc2)CC1 | 0.871 | –
COc1cc(CN2CCN(Cc3ccc(NC(C)=O)cc3)CC2CCO)cc(OC)c1 (stereo not given) | 0.808 | –
O=C1N(CC2CCC2)CCCC1(O)CN1CCC2(CC1)OCCO2 (stereo not given) | 0.907 | –
COc1ccccc1CNc1nc(CN(CCO)C2CS(=O)(=O)CC2O)nc2c(C)cccc12 (stereo not given) | – | 1.06
Cc1cccc(CNC(C)c2cnn(-c3cccc(F)c3)c2C)c1 (stereo not given) | 1.1 | –
O=C(c1ccc(N2CCC(NCC3C4CC5CC(C4)CC3C5)CC2)cc1)N1CCOCC1 (stereo not given) | – | 0.777
CN(Cc1ccccc1)Cc1cc(C(=O)NCc2cnc3ccccc3c2)no1 | 0.886 | –
Fc1ccc(Oc2ncccc2CNC2CCSCC2)cc1F | 0.827 | –
CCCN(CC1CCCO1)C(=O)c1csc2nc(-c3ccccc3C)cn12 (stereo not given) | 0.019 | –
O=C(c1ccncc1)N1CCc2onc(-c3ccc(C(F)(F)F)cc3)c2C1 | – | 0.993
C[C@@H]1CN(C(=O)C2CCN(c3nc(-c4ccccc4)nc4c3CCC4)CC2)C[C@H](C)O1 | – | 0.847
c1ccc(CN(CC2CCN(C3Cc4ccccc4C3)CC2)CC2CCCO2)nc1 (stereo not given) | 0.656 | –
O=C(NCCCc1ccccc1)C1CCC(=O)N(Cc2ccc(Cl)cc2)C1 (stereo not given) | 0.752 | –
CCOC(=O)C1CCCN(C(=O)c2cc(COc3ccc4c(c3)OCO4)[nH]n2)C1 (stereo not given) | 0.966 | –
COc1ccc(OC2CCN(C(=O)C3CC3)CC2)c(C(=O)NCc2ccccc2C)c1 | 1.01 | –
C1CCC(Nc2nc3nonc3nc2NCC2CCOCC2)C1 | 0.876 | –
Cc1nc(N2CCC(N(C)C(C)C)CC2)nc2cc3c(cc12)CCC3 | – | 0.591
COc1ccc(OCc2cc(C(=O)N(C)C(C)c3ccncn3)n[nH]2)c(Cl)c1 (stereo not given) | 0.996 | –
c1ccc(OCc2noc(-c3ccc(NCCN4CCCC4)nc3)n2)cc1 | 0.716 | –
Cc1nc(N2CCC(C(=O)N(C)CCC3CCCCO3)CC2)nc2cc(S(C)(=O)=O)ccc12 (stereo not given) | – | 0.79

2 of the compounds above, in markdown:

| Structure (SMILES) | bacterial growth OD600 (polymyxin B 1 µg/mL) | bacterial growth OD600 (polymyxin B 0.75 µg/mL) |
| --- | --- | --- |
| Fc1ccc(Oc2ncccc2CNC2CCSCC2)cc1F | 0.827 | – |
| C[C@@H]1CN(C(=O)C2CCN(c3nc(-c4ccccc4)nc4c3CCC4)CC2)C[C@H](C)O1 | – | 0.847 |
